Where a SMILES comes first, the peptide text is derived from it. The star is where a group is joined. X1 = CCN(CC)c1ccc2c(-c3ccc(S(=O)(=O)*)cc3S(=O)(=O)[O-])c3ccc(=[N+](CC)CC)cc-3oc2c1
Test system: HeLa cells transfected with the indicated GFP fusion protein
Experiment: Colocalization with Rab-GFP fusions and galT-GFP, confocal microscopy
Type: cell-based

Compound | rhodamine signal located in the Rab7-GFP compartment (1 μM, 30 min, HeLa cells) [%] | rhodamine signal overlapping with GFP-Rab5 (1 μM, 30 min, HeLa cells) [%] | miniature protein localized to enlarged GFP+ endosomes (HeLa cells transfected with Rab5Q79L-GFP) [%]
CC[C@H](C)[C@H](NC(=O)[C@H](CC(C)C)NC(=O)[C@H](CC(=O)O)NC(=O)[C@H](CCCNC(=N)N)NC(=O)[C@@H](NC(=O)[C@@H]1CCCN1C(=O)[C@H](C)NC(=O)[C@H](CC(=O)O)NC(=O)[C@H](CC(=O)O)NC(=O)CNC(=O)[C@@H]1CCCN1C(=O)[C@H](Cc1ccc(O)cc1)NC(=O)[C@@H](NC(=O)[C@@H]1CCCN1C(=O)[C@H](CCC(N)=O)NC(=O)[C@H](CO)NC(=O)[C@@H]1CCCN1C(=O)CNC(=O)[C@@H](N)CCCCNS(=O)(=O)c1ccc(-c2c3ccc(=[N+](CC)CC)cc-3oc3cc(N(CC)CC)ccc23)c(S(=O)(=O)[O-])c1)[C@@H](C)O)C(C)C)C(=O)N[C@@H](CCCNC(=N)N)C(=O)N[C@@H](Cc1ccccc1)C(=O)N[C@@H](Cc1ccc(O)cc1)C(=O)N[C@@H](CCCNC(=N)N)C(=O)N[C@@H](CC(=O)O)C(=O)N[C@@H](CC(C)C)C(=O)N[C@@H](CCCNC(=N)N)C(=O)N[C@@H](CCCNC(=N)N)C(=O)N[C@@H](Cc1ccc(O)cc1)C(=O)N[C@@H](CC(C)C)C(=O)N[C@@H](CC(N)=O)C(=O)N[C@H](C(=O)N[C@H](C(=O)N[C@H](C(=O)N[C@@H](CCCNC(=N)N)C(=O)N[C@@H](Cc1c[nH]cn1)C(=O)N[C@@H](CCCNC(=N)N)C(=O)N[C@@H](Cc1ccc(O)cc1)C(N)=O)[C@@H](C)O)C(C)C)C(C)C [5.3R] (H-K(X1)GPSQPTYPGDDAPVRDLIRFYRDLRRYLNVVTRHRY-NH2) | 87 | 66 | 99
K^RhodWYSCNVCGKAFVLSRHLNRHLRVHRRAT-NH2 (KWYSCNVCGKAFVLSRHLNRHLRVHRRAT; N-terminal rhodamine-labeled Lys; C-terminal amide; (1)..(1) rhodamine) [ZF5.3R] | – | 68 | –
